This is one part of the list. These are further read-outs of the screen, such as a control signal, another cell line or another target. No call is given for them. Compounds called inactive in the main read-out are mostly missing here. Potencies come from curve fits of mixed quality, noted in brackets.
Assay: qHTS Assay for Modulators of Lamin A Splicing
Details: HeLa LMNA splicing GFP/RFP minigene ratio, 48 h
Outline: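 Read-out is the ratio of GFP to DsRed2 object intensity, acquired by 488 nm laser-scanning cytometry on HeLa lamin A-EGFP minigene reporter cells. Compound incubation 48 hrs at 37 °C in Opti-MEM with 2% FBS; DMSO 0.5% final.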

[1] = measured here: GFP splicing reporter channel
[2] = measured here: RFP viability control channel

SMILES	AC50 [1]	AC50 [2]
Cc1c(N(C)C)c(=O)n(-c2ccccc2)n1C	0.0708 µM [falling, full curve]	0.0631 µM [falling, full curve, poor fit]
CCOC(=O)N1CCN(S(=O)(=O)c2ccc3[nH]c(=O)sc3c2)CC1	35.5 µM [rising, single point]	35.5 µM [rising, single point]
Cc1cc(Cl)ccc1C(=O)C1CCCN(C(=O)/C=C/c2cnn(C)c2)C1 (configuration not stated)	–	35.5 µM [falling, single point]
CC(NCc1ccc(S(N)(=O)=O)cc1)C(=O)Nc1cc([N+](=O)[O-])ccc1Cl (configuration not stated)	6.31 µM [rising, partial curve, poor fit]	–
Cc1c(Cl)c([N+](=O)[O-])nn1Cc1ccc(C(=O)N/N=C\c2ccccn2)o1	12.6 µM [rising, single point]	14.1 µM [rising, single point]
CCCc1c(-c2ccc(O)cc2)nn(-c2ccc(O)cc2)c1-c1ccc(O)cc1	3.55 µM [falling, full curve, poor fit]	3.16 µM [falling, full curve, poor fit]
CCOc1ccc2[nH]c(=O)c(C(c3nnnn3C3CCCCC3)N3CCN(CC)CC3)cc2c1 (configuration not stated)	35.5 µM [rising, single point]	35.5 µM [rising, single point]
CCOC(=O)C(C(=O)OCC)C(Nc1ccc(Br)cc1)c1ccccc1 (configuration not stated)	35.5 µM [falling, single point]	35.5 µM [falling, single point]
CCOC(=O)/C(C#N)=C1\Nc2ccccc2N=C1N(CC(C)C)CC(C)C	5.62 µM [falling, single point]	5.62 µM [falling, single point]
O=C(NCc1cccnc1)/C(=C\c1ccc(-c2cccc(Cl)c2)o1)S(=O)(=O)c1ccccc1	6.31 µM [falling, full curve]	–
CC(Oc1cccc(NC(=O)c2cccs2)c1)C(=O)c1ccccc1 (configuration not stated)	3.16 µM [rising, single point]	2.82 µM [rising, full curve, poor fit]
COc1ccc(NC(=O)c2c(NCc3sccc3C)sc3c2CCCCC3)c(OC)c1	35.5 µM [rising, single point]	35.5 µM [rising, single point]
O=C(NCCc1ccc2c(c1)OCCO2)c1ccc(F)cc1	31.6 µM [rising, single point]	35.5 µM [rising, single point]
CCCCC[C@H](O)/C=C/C1=C(CCCCCCC(=O)O)C(=O)CC1	0.0447 µM [rising, full curve, poor fit]	2.51 µM [rising, partial curve]
O=[N+]([O-])c1ccc(N2CCN(C(=S)Nc3cccc(F)c3)CC2)cc1	5.62 µM [falling, single point]	–
Cc1c(C(=O)NCCC2=CCCCC2)oc2ccc(S(=O)(=O)N3CCOCC3)cc12	11.2 µM [rising, partial curve]	17.8 µM [rising, partial curve, poor fit]
COc1ccc(/C(C)=N\O)cc1OC	0.501 µM [rising, full curve, poor fit]	–
CCCSc1ccc2nc(-c3ccccc3)cn2c1	–	35.5 µM [rising, single point]
COc1cc(/C=C(\C#N)c2nn(CCO)c(N)c2C#N)cc(OC)c1OC	35.5 µM [falling, single point]	1 µM [falling, partial curve, poor fit]
Cc1cccc(-n2c(O)c(C=Nc3ccc4c(c3)OCO4)c3ccccc3c2=O)n1	14.1 µM [rising, partial curve]	12.6 µM [rising, partial curve]
CCc1ccccc1NC(=S)N=Nc1c(O)n(C)c2ccc(S(=O)(=O)N3CCOCC3)cc12	3.16 µM [rising, full curve, poor fit]	5.62 µM [rising, single point]
CCn1c(Cc2ccc(OC)cc2)nnc1SCC(=O)N1CCN(c2ccccc2)CC1	20 µM [rising, single point]	17.8 µM [rising, single point]
Cc1cc(C)nc(NC(=O)c2c(C(=O)O)noc2C)n1	2.24 µM [falling, full curve, poor fit]	3.98 µM [falling, full curve, poor fit]
CCOC(=O)c1cc2c(=O)n3ccccc3nc2n(CCOC)c1=NC(=O)c1c(-c2c(F)cccc2Cl)noc1C	–	0.00316 µM [falling, full curve, poor fit]
COc1ccc(S(=O)(=O)N2CCCCC2)cc1NC(=O)C1CCCO1 (configuration not stated)	0.631 µM [falling, partial curve]	0.251 µM [falling, partial curve]

Another view of some results above:
SMILES | AC50 [1] | AC50 [2]
Cc1c(Cl)c([N+](=O)[O-])nn1Cc1ccc(C(=O)N/N=C\c2ccccn2)o1 | 12.6 µM [rising, single point] | 14.1 µM [rising, single point]
CCCc1c(-c2ccc(O)cc2)nn(-c2ccc(O)cc2)c1-c1ccc(O)cc1 | 3.55 µM [falling, full curve, poor fit] | 3.16 µM [falling, full curve, poor fit]
CCOc1ccc2[nH]c(=O)c(C(c3nnnn3C3CCCCC3)N3CCN(CC)CC3)cc2c1 (configuration not stated) | 35.5 µM [rising, single point] | 35.5 µM [rising, single point]
CCOC(=O)C(C(=O)OCC)C(Nc1ccc(Br)cc1)c1ccccc1 (configuration not stated) | 35.5 µM [falling, single point] | 35.5 µM [falling, single point]
CCOC(=O)/C(C#N)=C1\Nc2ccccc2N=C1N(CC(C)C)CC(C)C | 5.62 µM [falling, single point] | 5.62 µM [falling, single point]
O=C(NCc1cccnc1)/C(=C\c1ccc(-c2cccc(Cl)c2)o1)S(=O)(=O)c1ccccc1 | 6.31 µM [falling, full curve] | –
CC(Oc1cccc(NC(=O)c2cccs2)c1)C(=O)c1ccccc1 (configuration not stated) | 3.16 µM [rising, single point] | 2.82 µM [rising, full curve, poor fit]
COc1ccc(NC(=O)c2c(NCc3sccc3C)sc3c2CCCCC3)c(OC)c1 | 35.5 µM [rising, single point] | 35.5 µM [rising, single point]
O=C(NCCc1ccc2c(c1)OCCO2)c1ccc(F)cc1 | 31.6 µM [rising, single point] | 35.5 µM [rising, single point]
CCCCC[C@H](O)/C=C/C1=C(CCCCCCC(=O)O)C(=O)CC1 | 0.0447 µM [rising, full curve, poor fit] | 2.51 µM [rising, partial curve]
O=[N+]([O-])c1ccc(N2CCN(C(=S)Nc3cccc(F)c3)CC2)cc1 | 5.62 µM [falling, single point] | –

Continued.

SMILES	AC50 [1]	AC50 [2]
CCOC(=O)C1(Cc2ccccc2C(F)(F)F)CCN(C2CCC2)CC1	20 µM [falling, partial curve, poor fit]	–
Cc1ccc(-n2ncc3c(NC4CCCCC4)ncnc32)cc1C	0.141 µM [falling, full curve, poor fit]	–
Cc1ccc(C2C(C#N)=C(N)SC(N)=C2C#N)c(C)c1	35.5 µM [rising, single point]	–
O=C(CN1CCCC1)N1CCCc2c1c(=O)oc1ccc(OCc3ccccc3)cc21	10 µM [rising, partial curve, poor fit]	12.6 µM [rising, single point]
Cc1onc(-c2c(F)cccc2Cl)c1C(=O)NC1C(=O)N2C1SC(C)(C)C2C(=O)O (configuration not stated)	–	0.112 µM [falling, full curve, poor fit]
O=C(O)C1CCCNC1 (configuration not stated)	–	14.1 µM [falling, partial curve, poor fit]
CCc1ncc(C(O)c2cccc(OC)c2OC)n1C (configuration not stated)	35.5 µM [rising, single point]	–
COc1ccc(-c2coc3cc4oc(=O)c5ccccc5c4cc23)cc1F	–	10 µM [rising, partial curve, poor fit]
COc1cccc(S(=O)(=O)N2CCN(c3ccccc3F)CC2)c1	–	10 µM [rising, partial curve, poor fit]
CO/N=C/C1CCN(c2ncc(C(F)(F)F)cc2Cl)C1=O (configuration not stated)	–	0.126 µM [rising, full curve, poor fit]
Cc1ccc(C2OCC3(CO)COC(c4ccc(C)cc4)N23)cc1 (configuration not stated)	3.16 µM [falling, full curve]	22.4 µM [falling, single point]
COc1ccccc1CN1CCC(CNC(=O)c2cnn(-c3cccc(Cl)c3)c2C2CCN(C(=O)OC(C)(C)C)CC2)CC1	20 µM [falling, single point]	35.5 µM [falling, single point]
O=C(C1CC1)N(Cc1ccco1)c1nc(-c2ccccc2)cs1	–	35.5 µM [rising, single point]
Cc1nc2c(C)cccc2cc1C(=O)N/N=C/c1cccnc1	–	10 µM [rising, partial curve, poor fit]
O=C(CCNS(=O)(=O)c1ccc2c(c1)CCN2C(=O)C1CC1)Nc1ccc(Cl)cc1	0.891 µM [falling, full curve, poor fit]	–
CCCCN(Cc1ccco1)C(=O)c1cc2c(=O)[nH]c3ccc(C)cc3c2s1	11.2 µM [rising, partial curve, poor fit]	12.6 µM [rising, single point]
O=S(=O)(c1ccccc1)N1CCN(C(=S)Nc2ccc(F)cc2)CC1	–	6.31 µM [rising, partial curve, poor fit]
O=C1Nc2ccccc2/C1=C\c1cccn1-c1ccc(OC(F)(F)F)cc1	11.2 µM [rising, partial curve, poor fit]	12.6 µM [rising, partial curve, poor fit]
C[C@@]12CCC(=O)C=C1CC[C@H]1[C@H]3CC[C@](O)(C(=O)CO)[C@]3(C)CC(=O)[C@@H]12	0.501 µM [falling, full curve]	0.562 µM [falling, full curve]
COc1ccc(N2CCN(C(=O)c3noc4c3CCCCC4)CC2)cc1	11.2 µM [falling, partial curve]	0.00224 µM [falling, full curve]
Cc1cccc(Cc2cnc(N3C(=N)SC(c4ccccc4)C3=O)s2)c1 (configuration not stated)	35.5 µM [rising, single point]	35.5 µM [rising, single point]
O=C(Nc1cccnc1)c1ccc(N2CCCC2)c([N+](=O)[O-])c1	7.94 µM [rising, partial curve, poor fit]	–
CCCCCC(C)NC(=S)NC(=O)c1cc(S(=O)(=O)N2CCOCC2)ccc1C (configuration not stated)	–	17.8 µM [rising, partial curve, poor fit]
CC(=O)c1ccc(NC(=O)c2sc(-n3nc(C)c(Cc4ccc5c(c4)OCO5)c3C)nc2C)cc1	11.2 µM [falling, partial curve, poor fit]	15.8 µM [falling, partial curve]
CCC1CCCCN1CCCNC(=O)c1ccc2c(c1)N(Cc1cccc(Cl)c1)C(=O)c1ccccc1S2(=O)=O (configuration not stated)	0.178 µM [rising, full curve, poor fit]	–

From PubChem BioAssay AID1487 (National Center for Advancing Translational Sciences (NCATS), 2009)
